Consider 41 compounds from PubChem BioAssay AID2685 (National Center for Advancing Translational Sciences (NCATS), 2010).

The other results are listed elsewhere or left out. Shown are side measurements of this screen, not its main read-out; they come without a call. Most of these compounds were active or inconclusive in the main read-out, so they are no random draw. Potencies come from curve fits of mixed quality, noted in brackets.

This assay in a line: qHTS Assay for Lipid Storage Modulators in Drosophila S3 Cells.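 As to cell number change: cells counted by Cell Tracker Red CMTPX staining in the red channel.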 The conditions noted are these: BODIPY lipid droplet fluorescence, 18-24 h; for cell number change: measured here: cell count max response, cells fed with added oleic acid. The essentials:
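Drosophila S3 cells loaded with oleic acid (400 uM, as added) and compounds at several concentrations; lipid droplets imaged by 488-nm laser-scanning cytometry, 500–530 nm intensity and object ratio to cell channel. Percent activity normalized to 20 uM Triacsin C.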
A general note: In qHTS, concentration-response curves come from the screen itself.

Where [1] appears, read: measured here: cell number channel AC50, cells fed with added oleic acid.
The mark [2] stands for this setting: measured here: lipid fluorescence (Fed channel) AC50, cells fed with added oleic acid.

Consider `COc1ccc(-c2c3c(cc4ncn(Cc5ccccc5)c24)COC3=O)cc1`, for which the cell number change was -14.2%. Besides, the AC50 under setting [1] is 0.82 µM [falling, single point]. The AC50 under setting [2] was 9.2 µM [falling, single point].

Consider `CC1=C(C)CC(C(=O)c2ccc(C)cc2)C(C(=O)O)C1` (stereo not given), for which the cell number change is 9.62%. Also, the AC50 under setting [2] was 29.1 µM [rising, single point].

In the case of `O=C(c1ccc(N2CCN(C(=O)c3ccccc3)CC2)cc1)c1cccc(F)c1`, the AC50 under setting [2] was 2.31 µM [falling, partial curve]. `CCc1nnc(NC(=O)c2ccc(NC(=O)C(C)C)cc2)s1`: the cell number change was -28.3%. Further, the AC50 under setting [2] is 8.2 µM [falling, partial curve, poor fit]. `CCCC(=O)NC(Nc1cccc(C(F)(F)F)c1)C(Cl)(Cl)Cl` (stereo not given): the cell number change is -28.2%. Besides, under setting [2], the AC50 was 32.6 µM [falling, partial curve]. `O=C(COc1c(Cl)cc(Cl)cc1Cl)c1ccc(Cl)cc1`: the cell number change is 3.77%. Moreover, the concentration at half-maximal activity (AC50) under setting [2] is 0.164 µM [falling, full curve, poor fit].

With `CCCCCCCNC(=O)C1(CC2CC(c3ccc(Cl)cc3)=NO2)CCN(C(=O)CCCCCBr)CC1` (stereo not given), the cell number change amounted to 11%. Moreover, under setting [2], the AC50 is 20.6 µM [falling, single point]. In the case of `COc1cc2[nH]c(=O)n(CCCCCC(=O)NCCc3c[nH]c4ccccc34)c(=O)c2cc1OC`, the AC50 runs as follows: under setting [1], 3.26 µM [rising, single point]; under setting [2], 2.91 µM [rising, full curve].

Take `O=C(CN1C(=O)COc2ccccc21)Nc1ccc(N2CCOCC2)cc1`: the cell number change is -12.9%. Besides, the AC50 under setting [1] is 0.13 µM [rising, full curve, poor fit]. Further, under setting [2], the AC50 is 29.1 µM [rising, single point]. Consider `COc1cccc(NC(=O)NCCN2CCCCC2)c1`, for which the cell number change was determined as 26%. For the same compound, the AC50 under setting [2] was 29.1 µM [rising, single point]. In the case of `COC(=O)CN1C(=S)N(C)C(=O)C1CC(=O)Nc1ccccc1` (stereo not given), the cell number change was 7.25%.

As to `Cc1cc(OCCCC(=O)N2CCCCC2)cc(C)c1Cl`, the AC50 under setting [1] is 4.11 µM [falling, single point]. On to `Cc1cc2oc(=O)sc2cc1NS(=O)(=O)c1cccc2cccnc12`, for which the cell number change was found to be 8.4%. The AC50 under setting [2] was 0.00517 µM [falling, full curve, poor fit]. With `CC1CCN(S(=O)(=O)c2ccc3c(c2)oc(=O)n3CC(=O)NCc2ccc3c(c2)OCO3)CC1`, the cell number change was -6.85%. Further, the AC50 under setting [2] is 29.1 µM [rising, single point]. Consider `COc1ccc(OC)c(Nc2nc(N)nc(-c3cc4ccccc4o3)n2)c1`, for which the cell number change is -3.98%. Still for that read-out and setting: to `CCN1CCSc2ccc(C(=O)NCc3ccccc3F)cc21` belongs -0.576%; to `Cc1ccc(NC(=O)COC(=O)CCn2c(C)csc2=O)cc1S(=O)(=O)N1CCOCC1`, 8.5%; to `COc1ccc(C(C(=O)NCC2CCCO2)N(C(=O)CNC(=O)c2ccco2)c2ccc(C)c(C)c2)cc1OC` (stereo not given), -3.85%. On the same count and under the same terms, the same measure for `CC(=O)c1ccc(NC(=O)COc2ccccc2C(=O)Nc2ccc(C)cn2)cc1`: -16.2%. Turning to `CCn1nc(C(=O)OCc2cccc(S(=O)(=O)N(C)C)c2)c2ccccc2c1=O`, the cell number change was -32.9%. Also, the AC50 under setting [1] is 8.2 µM [falling, partial curve, poor fit]. Further, the AC50 under setting [2] was 7.31 µM [falling, partial curve].

Turning to `O=C1C2C3C=CC(C3)C2C(=O)N1CCN1CCN(Cc2ccc([N+](=O)[O-])cc2)CC1` (stereo not given), the cell number change was -51.5%.

Regarding `CC(=O)c1cn(CC(=O)Nc2ccc(C)cc2)c2ccccc12`, the cell number change came to 9%. In addition, the AC50 under setting [2] was 0.517 µM [rising, partial curve, poor fit]. For the compound `COc1ccc(C(=O)Nc2ccccc2N2CCOCC2)cc1S(=O)(=O)N1CCCC1`, the cell number change came to 4.48%. Besides, the AC50 under setting [1] is 2.31 µM [rising, partial curve]. The AC50 under setting [2] is 0.0259 µM [rising, full curve, poor fit].

As for `CC(C)C(NS(=O)(=O)c1cc(C(=O)O)ccc1Cl)C(=O)O` (stereo not given), the cell number change is -24%. In addition, under setting [2], the AC50 was 25.9 µM [falling, single point].

Take `CCOc1ccc(CN(C)CC(=O)NCc2ccccc2Cl)cc1`: the cell number change came to 29.9%.

For `Cc1ccc(CN2CCCCC2C(=O)Nc2ccc(Oc3cccnc3)cc2)o1` (stereo not given), the cell number change is 12.4%. Consider `COc1ccc(Cc2noc(CN3CCC(c4ccncc4)CC3)n2)cc1OC`, for which the cell number change was -13.5%.

Regarding `N/C(Cc1ccc(Cl)cc1)=N\OC(=O)C1CCCCC1`, the cell number change is -16.7%. Besides, the AC50 under setting [1] is 0.00517 µM [falling, full curve, poor fit]. Regarding `O=C(Cn1cc(C(F)(F)F)ccc1=O)N1CCN(S(=O)(=O)c2ccccc2)CC1`, the cell number change stood at 25.4%. Under setting [2], the half-maximal activity concentration (AC50) was 29.1 µM [rising, single point]. As for `CCN(CC(=O)NCc1cccs1)C(=O)c1ccc(NS(=O)(=O)c2ccc(F)cc2)cc1`, the cell number change was found to be 9.63%. In addition, the AC50 under setting [2] is 29.1 µM [falling, single point]. As to `CCOC(=O)c1nnn(CC(=O)Nc2cc(Cl)ccc2C)c1C(=O)OCC`, the AC50 under setting [2] was 0.146 µM [rising, full curve]. As to `CCOC(=O)COc1nc(OC)nc(N2CCOCC2)n1`, the cell number change is -13.5%. For the same compound, under setting [2], the AC50 was 29.1 µM [falling, single point]. Take `O=C(Nc1ccccc1N1CCN(C(=O)c2ccccc2)CC1)c1ccc([N+](=O)[O-])o1`: the half-maximal activity concentration (AC50) under setting [2] was 7.31 µM [falling, partial curve]. Regarding `O=C(CN1CCN(S(=O)(=O)c2ccc(Cl)c(Cl)c2)CC1)N1CCCCC1`, the cell number change amounted to 2.52%. Under setting [2], the AC50 was 6.51 µM [falling, partial curve, poor fit].

With `CN(C)CCCOC(=O)c1ccccc1`, the cell number change was -2.21%. As for `COc1ccc(NC(=O)Nc2nc3ccccc3s2)cc1`, the cell number change is -32.9%. Further, the AC50 under setting [1] was 29.1 µM [falling, single point]. Further, under setting [2], the half-maximal activity concentration (AC50) is 6.51 µM [falling, single point]. With `CCOc1cc(/C=N/N2CCOCC2)ccc1OCc1ccc(C(=O)OC)o1`, the cell number change is -13.5%. Besides, the AC50 under setting [1] was 0.00461 µM [falling, full curve, poor fit]. For `CCOC(=O)c1c(C)[nH]c(C)c1C(=O)CSc1nnc(-c2ccncc2)n1C`, the cell number change stood at 6.11%. Moreover, under setting [1], the AC50 was 1.64 µM [rising, partial curve, poor fit]. As for `CCOCCc1nnc(NC(=O)C2CC(=O)N(CCc3ccc(F)cc3)C2)s1` (stereo not given), the cell number change was determined as 1.28%. For the same compound, the AC50 under setting [2] was 29.1 µM [falling, single point].

With `Cc1ccc(CNC(=O)COC(=O)CCOc2ccc(C)cc2)cc1`, the cell number change came out at 26.9%. For the compound `CC1(C)OCC(COC(=O)Nc2cccnc2)([N+](=O)[O-])CO1`, under setting [2], the AC50 was 29.1 µM [rising, single point].

What is called AC50 is the concentration at which the activity in the assay is half-maximal. A high value points to activity only at high concentration.
